Laboratory results from publication PMC5797633.
Results are given in words; binding and its absence hold for the method and conditions named. Binding seen in cells or lysates may run through a third protein. Some binding calls cover weakened binding; strength is not graded here.

Sequences of proteins named here, by UniProt entry; tags and fusion partners are left off.
UniProt O95071: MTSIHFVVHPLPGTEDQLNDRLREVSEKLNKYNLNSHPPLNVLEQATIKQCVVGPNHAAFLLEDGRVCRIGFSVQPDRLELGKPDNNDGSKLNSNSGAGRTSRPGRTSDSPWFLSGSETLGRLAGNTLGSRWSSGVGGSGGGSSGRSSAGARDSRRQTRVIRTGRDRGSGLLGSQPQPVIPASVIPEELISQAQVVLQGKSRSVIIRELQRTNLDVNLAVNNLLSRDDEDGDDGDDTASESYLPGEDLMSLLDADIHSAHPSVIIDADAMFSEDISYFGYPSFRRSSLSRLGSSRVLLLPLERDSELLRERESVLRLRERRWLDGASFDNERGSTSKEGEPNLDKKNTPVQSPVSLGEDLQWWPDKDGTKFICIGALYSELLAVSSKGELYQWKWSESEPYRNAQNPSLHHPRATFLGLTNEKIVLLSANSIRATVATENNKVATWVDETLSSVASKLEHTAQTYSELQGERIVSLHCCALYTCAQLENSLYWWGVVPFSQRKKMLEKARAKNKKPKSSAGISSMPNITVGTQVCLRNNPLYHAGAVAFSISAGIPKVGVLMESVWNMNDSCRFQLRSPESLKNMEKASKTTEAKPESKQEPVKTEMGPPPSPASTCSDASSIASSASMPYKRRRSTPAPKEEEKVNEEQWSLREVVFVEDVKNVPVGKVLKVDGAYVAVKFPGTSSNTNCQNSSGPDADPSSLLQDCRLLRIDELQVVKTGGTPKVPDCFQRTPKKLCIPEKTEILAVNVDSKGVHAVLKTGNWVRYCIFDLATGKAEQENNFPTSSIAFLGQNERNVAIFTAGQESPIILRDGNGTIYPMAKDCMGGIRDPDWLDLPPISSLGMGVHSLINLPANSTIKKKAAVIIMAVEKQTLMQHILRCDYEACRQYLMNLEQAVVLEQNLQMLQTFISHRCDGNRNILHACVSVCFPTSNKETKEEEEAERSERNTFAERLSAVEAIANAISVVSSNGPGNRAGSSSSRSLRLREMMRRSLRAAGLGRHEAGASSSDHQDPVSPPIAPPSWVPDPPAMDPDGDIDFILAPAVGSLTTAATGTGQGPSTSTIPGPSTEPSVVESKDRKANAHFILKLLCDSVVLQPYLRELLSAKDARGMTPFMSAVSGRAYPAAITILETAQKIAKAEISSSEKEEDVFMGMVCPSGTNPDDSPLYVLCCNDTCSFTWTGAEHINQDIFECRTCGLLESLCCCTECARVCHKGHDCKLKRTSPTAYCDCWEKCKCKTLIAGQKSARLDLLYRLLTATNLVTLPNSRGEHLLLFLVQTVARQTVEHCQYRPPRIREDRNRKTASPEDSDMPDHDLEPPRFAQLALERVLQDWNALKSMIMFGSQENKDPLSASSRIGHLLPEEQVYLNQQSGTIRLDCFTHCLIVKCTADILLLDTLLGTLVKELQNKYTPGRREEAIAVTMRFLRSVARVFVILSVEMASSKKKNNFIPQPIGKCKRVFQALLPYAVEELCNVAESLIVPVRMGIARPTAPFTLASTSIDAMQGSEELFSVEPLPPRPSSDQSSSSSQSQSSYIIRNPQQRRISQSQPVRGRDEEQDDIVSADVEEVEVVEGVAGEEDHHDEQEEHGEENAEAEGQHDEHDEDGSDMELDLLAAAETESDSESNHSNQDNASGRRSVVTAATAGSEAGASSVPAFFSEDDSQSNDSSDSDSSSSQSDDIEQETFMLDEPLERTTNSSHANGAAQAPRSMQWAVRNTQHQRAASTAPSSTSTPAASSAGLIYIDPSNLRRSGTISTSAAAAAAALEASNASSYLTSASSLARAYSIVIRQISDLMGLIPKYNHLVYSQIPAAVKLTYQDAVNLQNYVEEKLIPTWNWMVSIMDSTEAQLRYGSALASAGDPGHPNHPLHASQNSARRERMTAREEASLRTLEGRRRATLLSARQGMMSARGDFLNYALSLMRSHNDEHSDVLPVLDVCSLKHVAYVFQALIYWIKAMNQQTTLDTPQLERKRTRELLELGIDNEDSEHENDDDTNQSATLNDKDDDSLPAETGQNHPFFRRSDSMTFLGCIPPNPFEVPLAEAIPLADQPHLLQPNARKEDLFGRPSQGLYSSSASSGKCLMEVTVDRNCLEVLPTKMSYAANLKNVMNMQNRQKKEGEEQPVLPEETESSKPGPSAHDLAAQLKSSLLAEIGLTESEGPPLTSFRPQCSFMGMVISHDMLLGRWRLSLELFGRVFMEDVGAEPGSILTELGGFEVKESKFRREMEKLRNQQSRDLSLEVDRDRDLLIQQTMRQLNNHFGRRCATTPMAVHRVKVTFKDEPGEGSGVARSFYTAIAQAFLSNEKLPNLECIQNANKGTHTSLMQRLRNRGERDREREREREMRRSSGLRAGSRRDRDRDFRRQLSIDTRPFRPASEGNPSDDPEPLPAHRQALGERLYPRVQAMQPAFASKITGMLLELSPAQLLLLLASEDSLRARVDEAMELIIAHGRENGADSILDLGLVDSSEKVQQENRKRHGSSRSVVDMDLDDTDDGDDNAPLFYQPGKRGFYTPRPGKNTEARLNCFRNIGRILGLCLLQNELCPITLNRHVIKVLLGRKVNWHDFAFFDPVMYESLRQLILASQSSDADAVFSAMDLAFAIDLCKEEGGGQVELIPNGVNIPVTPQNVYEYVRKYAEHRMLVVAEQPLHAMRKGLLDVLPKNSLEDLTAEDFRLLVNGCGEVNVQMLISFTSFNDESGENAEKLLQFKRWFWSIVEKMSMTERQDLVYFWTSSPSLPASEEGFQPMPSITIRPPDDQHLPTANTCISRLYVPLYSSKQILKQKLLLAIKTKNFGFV

Columns and labels:
[1] = biological target: Flag-tagged UBR5 (pCMV-Tag2B-EDD) (UniProt O95071); experiment: co-IP
[2] = biological target: HBZ ectopically expressed in Jurkat-HBZ cells (HBZ-GFP chimeric protein) (HTLV-1) (UniProt P0C746); experiment: co-IP; IP with rabbit anti-HBZ antiserum or control rabbit IgG and Protein G Dynabeads from lysates of T-cell lines (Jurkat-HBZ, SLB-1; 10 μM MG-132 for 20 h, NP-40 lysis buffer); immunoblot for UBR5 and HBZ
[3] = biological target: HBZ expressed in SLB-1 cells (HTLV-1-transformed T-cell line) (HTLV-1 (expressed in SLB-1)) (UniProt P0C746); experiment: as above
[4] = biological target: S-tagged HBZ (HTLV-1 basic leucine zipper factor), wild type (HTLV-1) (UniProt P0C746); experiment: pull-down; S-tag affinity pulldown on S beads overnight at 4°C from lysates of transfected HEK293T cells (10 μM MG-132 for 20 h, NP-40 lysis buffer, 25 mM NEM); immunoblot with anti-S-tag and anti-UBR5
[5] = biological target: S-tagged HBZ AD-BR2-BR1-BR3 (HTLV-1) (UniProt P0C746); experiment: as above
[6] = biological target: S-tagged HBZ ΔbZIP (HTLV-1) (UniProt P0C746); experiment: as above
[7] = biological target: S-tagged HBZ AD-BR2-BR1 (HTLV-1) (UniProt P0C746); experiment: as above

S-tagged HBZ (HTLV-1 basic leucine zipper factor), wild type (from UniProt P0C746-2 1-206)
binding [1]: binds

untagged HBZ (pME-HBZ) (from UniProt P0C746-2 1-206)
binding [1]: binds

UBR5 (endogenous in Jurkat-HBZ cells) (from UniProt O95071 1-2799) (enzyme)
binding [2]: binds

UBR5 (endogenous in SLB-1 cells) (from UniProt O95071 1-2799) (enzyme)
binding [3]: binds

Flag-tagged UBR5 (pCMV-Tag2B-EDD) (from UniProt O95071 1-2799) (enzyme)
binding [4]: binds
binding [5]: binds
binding [6]: binds
binding [7]: binds

UBR5, E3 ubiquitin-protein ligase (endogenous in HEK293T) (from UniProt O95071 1-2799) (enzyme)
binding [4]: binds
